Laboratory results taken from PMC9375095.
No constants are given. Whether binding was seen depends on the method and setting. In cells and extracts the contact can be indirect. Some results given as binding are weak or reduced against the parent protein; the word gives no strength.

By UniProt entry, the sequences of proteins in these tests, tags left out.
UniProt Q13547: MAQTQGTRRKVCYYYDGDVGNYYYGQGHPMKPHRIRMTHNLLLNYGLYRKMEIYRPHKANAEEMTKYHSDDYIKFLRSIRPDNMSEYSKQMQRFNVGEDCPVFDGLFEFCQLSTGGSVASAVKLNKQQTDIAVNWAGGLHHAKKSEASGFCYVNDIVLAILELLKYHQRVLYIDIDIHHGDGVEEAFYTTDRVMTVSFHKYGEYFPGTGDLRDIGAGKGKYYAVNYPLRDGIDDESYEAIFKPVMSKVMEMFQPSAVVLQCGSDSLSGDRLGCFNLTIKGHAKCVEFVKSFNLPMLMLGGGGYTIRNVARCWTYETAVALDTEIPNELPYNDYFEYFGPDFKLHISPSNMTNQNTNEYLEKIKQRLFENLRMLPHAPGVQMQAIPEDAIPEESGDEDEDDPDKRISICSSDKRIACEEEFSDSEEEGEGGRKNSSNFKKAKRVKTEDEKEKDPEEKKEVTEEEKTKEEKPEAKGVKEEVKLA
UniProt P35637: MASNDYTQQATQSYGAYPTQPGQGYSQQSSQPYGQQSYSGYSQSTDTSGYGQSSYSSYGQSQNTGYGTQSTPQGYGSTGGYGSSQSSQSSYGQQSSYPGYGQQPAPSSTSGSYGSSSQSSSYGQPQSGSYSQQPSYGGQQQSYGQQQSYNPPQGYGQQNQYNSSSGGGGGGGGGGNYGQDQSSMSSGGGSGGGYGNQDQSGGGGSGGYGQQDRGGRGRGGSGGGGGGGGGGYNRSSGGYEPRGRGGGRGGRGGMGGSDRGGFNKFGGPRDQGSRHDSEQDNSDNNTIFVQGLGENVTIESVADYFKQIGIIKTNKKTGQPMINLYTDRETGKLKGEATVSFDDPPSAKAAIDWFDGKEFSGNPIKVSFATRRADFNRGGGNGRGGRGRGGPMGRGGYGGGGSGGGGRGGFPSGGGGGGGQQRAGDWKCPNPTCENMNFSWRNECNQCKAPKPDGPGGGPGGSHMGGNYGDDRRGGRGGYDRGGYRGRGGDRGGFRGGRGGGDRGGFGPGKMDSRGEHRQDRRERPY

Columns and labels:
[1] = biological target: T1, HNRNPM (human (endogenous in MCF7)) (UniProt P52272); test: proximity ligation; in situ PLA (Duolink In Situ Red Starter Kit Mouse/Rabbit) on PFA-fixed, permeabilised cells; RCPs per cell; treatments: TGF-β1 48 h (HaCaT), siPDIA3 72 h (HaCaT), PDGF-BB 15 min (BJ-hTERT)
T1 sequence: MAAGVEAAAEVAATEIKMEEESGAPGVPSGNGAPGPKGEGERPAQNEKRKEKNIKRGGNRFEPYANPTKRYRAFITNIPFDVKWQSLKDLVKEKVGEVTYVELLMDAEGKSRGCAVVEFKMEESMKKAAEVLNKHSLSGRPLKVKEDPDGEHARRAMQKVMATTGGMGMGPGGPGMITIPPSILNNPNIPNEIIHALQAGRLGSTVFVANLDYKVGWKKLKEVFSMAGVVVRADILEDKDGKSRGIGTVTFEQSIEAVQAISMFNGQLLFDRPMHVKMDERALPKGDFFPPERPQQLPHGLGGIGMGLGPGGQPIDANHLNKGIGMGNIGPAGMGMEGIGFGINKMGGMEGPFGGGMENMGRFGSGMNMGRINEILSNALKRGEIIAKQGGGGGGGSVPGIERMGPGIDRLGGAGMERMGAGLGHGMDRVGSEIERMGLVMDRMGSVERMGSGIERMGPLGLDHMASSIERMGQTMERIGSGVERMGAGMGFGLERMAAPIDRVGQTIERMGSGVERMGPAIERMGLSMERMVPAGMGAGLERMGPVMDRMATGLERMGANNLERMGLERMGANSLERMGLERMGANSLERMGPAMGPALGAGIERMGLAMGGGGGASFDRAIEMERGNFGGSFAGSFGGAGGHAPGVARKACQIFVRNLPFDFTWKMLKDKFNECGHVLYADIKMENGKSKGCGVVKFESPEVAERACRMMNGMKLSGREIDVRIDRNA

[2] = biological target: T1, HNRNPM (human (endogenous in MCF7)); test: MolBoolean (proximity assay with antibody-DNA conjugates); PFA-fixed, permeabilised cells (MCF7, HaCaT, AGS clones, BJ-hTERT); mouse and rabbit primary antibodies, secondary proximity probes A and B; dual-coloured RCPs counted as complex, single-coloured as free protein; treatments: TGF-β1 48 h (HaCaT), siPDIA3 72 h (HaCaT), PDGF-BB 15 min (BJ-hTERT)
[3] = biological target: calreticulin (human (endogenous in HaCaT)) (UniProt P27797); test: proximity ligation; in situ PLA (Duolink In Situ Red Starter Kit Mouse/Rabbit) on PFA-fixed, permeabilised cells; RCPs per cell; treatments: TGF-β1 48 h (HaCaT), siPDIA3 72 h (HaCaT), PDGF-BB 15 min (BJ-hTERT)
[4] = biological target: calreticulin (human (endogenous in HaCaT)) (UniProt P27797); test: MolBoolean (proximity assay with antibody-DNA conjugates); PFA-fixed, permeabilised cells (MCF7, HaCaT, AGS clones, BJ-hTERT); mouse and rabbit primary antibodies, secondary proximity probes A and B; dual-coloured RCPs counted as complex, single-coloured as free protein; treatments: TGF-β1 48 h (HaCaT), siPDIA3 72 h (HaCaT), PDGF-BB 15 min (BJ-hTERT)
[5] = biological target: HDAC1 (human (endogenous in FFPE colon tissue)) (UniProt Q13547); test: proximity ligation; in situ PLA (Duolink) on deparaffinised FFPE human tissue sections after antigen retrieval
[6] = biological target: HDAC1 (human (endogenous in FFPE colon tissue)) (UniProt Q13547); test: MolBoolean (proximity assay with antibody-DNA conjugates); FFPE human tissue sections after deparaffinisation and antigen retrieval; secondary proximity probes; percentage of RCPs in each category per frame

FUS (from UniProt P35637 1-526)
binding [1]: binds | binding [2]: binds

PDIA3 (from UniProt P30101 25-505)
binding [3]: binds | binding [4]: binds

B1: SATB2 (protein, UniProt Q9UPW6 1-733)
chain: MERRSESPCLRDSPDRRSGSPDVKGPPPVKVARLEQNGSPMGARGRPNGAVAKAVGGLMIPVFCVVEQLDGSLEYDNREEHAEFVLVRKDVLFSQLVETALLALGYSHSSAAQAQGIIKLGRWNPLPLSYVTDAPDATVADMLQDVYHVVTLKIQLQSCSKLEDLPAEQWNHATVRNALKELLKEMNQSTLAKECPLSQSMISSIVNSTYYANVSATKCQEFGRWYKKYKKIKVERVERENLSDYCVLGQRPMHLPNMNQLASLGKTNEQSPHSQIHHSTPIRNQVPALQPIMSPGLLSPQLSPQLVRQQIAMAHLINQQIAVSRLLAHQHPQAINQQFLNHPPIPRAVKPEPTNSSVEVSPDIYQQVRDELKRASVSQAVFARVAFNRTQGLLSEILRKEEDPRTASQSLLVNLRAMQNFLNLPEVERDRIYQDERERSMNPNVSMVSSASSSPSSSRTPQAKTSTPTTDLPIKVDGANINITAAIYDEIQQEMKRAKVSQALFAKVAANKSQGWLCELLRWKENPSPENRTLWENLCTIRRFLNLPQHERDVIYEEESRHHHSERMQHVVQLPPEPVQVLHRQQSQPAKESSPPREEAPPPPPPTEDSCAKKPRSRTKISLEALGILQSFIHDVGLYPDQEAIHTLSAQLDLPKHTIIKFFQNQRYHVKHHGKLKEHLGSAVDVAEYKDEELLTESEENDSEEGSEEMYKVEAEEENADKSKAAPAEIDQR
binding [5]: binds | binding [6]: binds
